Experimental data published in patent publication US20260345596A1, “TREATMENT OF LOCALLY ADVANCED OR METASTATIC UROTHELIAL CARCINOMA WITH ERDAFINITIB” (priority 2023, published 2026).

The chains behind the UniProt entries cited, without tags or fusion partners. Where a name states a change or a piece, a line headed by the entry shows the natural chain unless it says otherwise. Residues count along the entry.
UniProt P11712, whole entry: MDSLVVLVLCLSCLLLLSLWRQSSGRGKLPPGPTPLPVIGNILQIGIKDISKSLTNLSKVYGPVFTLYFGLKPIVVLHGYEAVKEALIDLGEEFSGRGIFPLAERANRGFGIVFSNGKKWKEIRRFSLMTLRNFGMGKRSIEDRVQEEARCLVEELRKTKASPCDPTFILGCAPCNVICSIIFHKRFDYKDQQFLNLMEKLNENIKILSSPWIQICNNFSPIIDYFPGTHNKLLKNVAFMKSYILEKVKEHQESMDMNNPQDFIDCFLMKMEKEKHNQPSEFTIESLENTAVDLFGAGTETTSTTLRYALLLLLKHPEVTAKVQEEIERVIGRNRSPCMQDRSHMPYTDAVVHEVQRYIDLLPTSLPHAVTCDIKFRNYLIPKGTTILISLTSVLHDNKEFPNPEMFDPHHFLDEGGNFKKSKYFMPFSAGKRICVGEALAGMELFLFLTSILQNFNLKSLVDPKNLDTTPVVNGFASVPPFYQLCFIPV
UniProt Q8TCC7: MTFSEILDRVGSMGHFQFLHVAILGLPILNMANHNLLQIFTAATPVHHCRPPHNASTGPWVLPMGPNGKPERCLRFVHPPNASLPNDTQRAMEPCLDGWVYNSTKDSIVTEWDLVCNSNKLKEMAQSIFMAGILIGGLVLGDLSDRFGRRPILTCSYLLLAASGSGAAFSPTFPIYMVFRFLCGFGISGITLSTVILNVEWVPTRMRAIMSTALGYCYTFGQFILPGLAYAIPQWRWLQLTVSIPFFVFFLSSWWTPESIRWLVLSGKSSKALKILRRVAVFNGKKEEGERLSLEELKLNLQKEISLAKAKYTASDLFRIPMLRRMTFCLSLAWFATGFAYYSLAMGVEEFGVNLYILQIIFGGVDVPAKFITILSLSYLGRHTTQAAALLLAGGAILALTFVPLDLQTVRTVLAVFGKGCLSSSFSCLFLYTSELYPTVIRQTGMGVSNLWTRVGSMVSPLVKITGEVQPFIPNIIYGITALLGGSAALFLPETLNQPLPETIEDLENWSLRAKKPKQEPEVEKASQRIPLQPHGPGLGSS
UniProt O15245: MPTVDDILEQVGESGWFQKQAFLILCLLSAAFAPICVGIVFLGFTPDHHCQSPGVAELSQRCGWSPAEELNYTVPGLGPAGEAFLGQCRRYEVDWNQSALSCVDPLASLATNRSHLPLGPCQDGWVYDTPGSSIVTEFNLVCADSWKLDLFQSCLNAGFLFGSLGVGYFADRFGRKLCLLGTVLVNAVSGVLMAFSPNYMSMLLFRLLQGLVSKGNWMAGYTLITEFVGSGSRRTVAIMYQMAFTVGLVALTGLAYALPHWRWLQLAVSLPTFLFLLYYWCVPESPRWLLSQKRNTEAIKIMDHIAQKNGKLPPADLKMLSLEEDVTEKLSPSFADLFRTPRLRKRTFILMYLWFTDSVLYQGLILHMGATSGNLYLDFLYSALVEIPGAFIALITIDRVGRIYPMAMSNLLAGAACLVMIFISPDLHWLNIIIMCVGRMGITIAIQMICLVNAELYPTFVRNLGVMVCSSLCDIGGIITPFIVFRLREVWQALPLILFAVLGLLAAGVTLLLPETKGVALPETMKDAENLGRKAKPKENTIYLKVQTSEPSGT
UniProt Q4U2R8: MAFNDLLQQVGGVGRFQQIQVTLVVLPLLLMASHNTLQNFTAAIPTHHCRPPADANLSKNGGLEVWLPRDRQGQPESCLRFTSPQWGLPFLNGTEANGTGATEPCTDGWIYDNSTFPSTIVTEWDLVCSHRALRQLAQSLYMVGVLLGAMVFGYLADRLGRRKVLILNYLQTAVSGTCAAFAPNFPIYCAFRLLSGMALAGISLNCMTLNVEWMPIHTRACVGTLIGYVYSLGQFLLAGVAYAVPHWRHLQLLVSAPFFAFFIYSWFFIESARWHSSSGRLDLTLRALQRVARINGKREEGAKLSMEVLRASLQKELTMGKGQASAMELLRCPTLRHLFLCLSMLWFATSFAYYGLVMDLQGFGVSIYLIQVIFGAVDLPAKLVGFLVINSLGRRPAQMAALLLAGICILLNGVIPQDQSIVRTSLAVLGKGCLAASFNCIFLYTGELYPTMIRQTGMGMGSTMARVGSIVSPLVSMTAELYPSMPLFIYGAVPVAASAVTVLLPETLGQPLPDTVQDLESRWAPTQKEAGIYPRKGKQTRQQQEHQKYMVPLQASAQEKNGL
UniProt Q86VL8, 1-566 isoform Q86VL8-3: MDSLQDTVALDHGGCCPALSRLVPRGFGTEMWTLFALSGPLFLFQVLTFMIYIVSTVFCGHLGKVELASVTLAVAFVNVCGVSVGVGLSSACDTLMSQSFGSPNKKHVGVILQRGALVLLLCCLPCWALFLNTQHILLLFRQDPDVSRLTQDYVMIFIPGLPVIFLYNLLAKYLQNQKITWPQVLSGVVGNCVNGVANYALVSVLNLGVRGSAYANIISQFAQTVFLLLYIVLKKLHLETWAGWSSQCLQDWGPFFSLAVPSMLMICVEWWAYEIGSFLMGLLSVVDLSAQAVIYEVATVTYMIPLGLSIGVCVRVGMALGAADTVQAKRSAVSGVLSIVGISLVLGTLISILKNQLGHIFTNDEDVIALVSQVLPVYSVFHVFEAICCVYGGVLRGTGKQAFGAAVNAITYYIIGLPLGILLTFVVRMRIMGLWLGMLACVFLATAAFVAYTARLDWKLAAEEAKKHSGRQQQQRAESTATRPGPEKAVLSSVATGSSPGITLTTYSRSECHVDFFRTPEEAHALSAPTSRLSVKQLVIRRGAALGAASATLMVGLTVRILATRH
UniProt P08684, whole entry: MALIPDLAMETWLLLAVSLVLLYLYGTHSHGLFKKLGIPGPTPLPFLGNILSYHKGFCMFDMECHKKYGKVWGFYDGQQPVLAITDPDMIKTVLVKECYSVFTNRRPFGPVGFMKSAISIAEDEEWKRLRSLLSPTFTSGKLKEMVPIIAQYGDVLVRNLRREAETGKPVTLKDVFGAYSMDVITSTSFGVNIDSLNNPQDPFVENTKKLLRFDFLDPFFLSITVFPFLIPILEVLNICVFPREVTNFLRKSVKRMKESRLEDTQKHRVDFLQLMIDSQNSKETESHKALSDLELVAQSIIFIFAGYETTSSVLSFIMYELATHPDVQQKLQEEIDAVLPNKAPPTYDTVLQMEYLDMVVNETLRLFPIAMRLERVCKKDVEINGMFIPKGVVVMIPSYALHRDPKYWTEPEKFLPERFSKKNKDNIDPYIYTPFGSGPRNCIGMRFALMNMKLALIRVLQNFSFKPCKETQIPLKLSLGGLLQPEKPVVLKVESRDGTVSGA
UniProt Q9NPD5: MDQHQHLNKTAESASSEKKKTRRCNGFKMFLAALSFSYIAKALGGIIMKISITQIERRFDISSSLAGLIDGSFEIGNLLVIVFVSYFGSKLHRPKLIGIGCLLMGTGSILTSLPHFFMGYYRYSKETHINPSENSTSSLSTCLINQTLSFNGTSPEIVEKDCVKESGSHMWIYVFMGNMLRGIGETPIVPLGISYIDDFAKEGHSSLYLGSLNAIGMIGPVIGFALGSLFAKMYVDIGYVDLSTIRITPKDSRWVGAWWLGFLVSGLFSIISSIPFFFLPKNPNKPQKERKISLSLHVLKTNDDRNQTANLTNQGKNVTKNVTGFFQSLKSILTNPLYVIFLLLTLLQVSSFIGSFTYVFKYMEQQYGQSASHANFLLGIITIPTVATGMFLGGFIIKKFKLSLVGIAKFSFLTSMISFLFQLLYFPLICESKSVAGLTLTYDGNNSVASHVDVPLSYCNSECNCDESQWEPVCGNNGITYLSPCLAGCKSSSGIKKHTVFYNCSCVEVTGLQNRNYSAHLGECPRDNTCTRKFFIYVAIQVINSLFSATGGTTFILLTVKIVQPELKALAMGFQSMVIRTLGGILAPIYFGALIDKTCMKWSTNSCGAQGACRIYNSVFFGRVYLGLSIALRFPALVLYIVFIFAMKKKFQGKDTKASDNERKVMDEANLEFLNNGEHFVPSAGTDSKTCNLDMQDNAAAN
UniProt P08183, whole entry: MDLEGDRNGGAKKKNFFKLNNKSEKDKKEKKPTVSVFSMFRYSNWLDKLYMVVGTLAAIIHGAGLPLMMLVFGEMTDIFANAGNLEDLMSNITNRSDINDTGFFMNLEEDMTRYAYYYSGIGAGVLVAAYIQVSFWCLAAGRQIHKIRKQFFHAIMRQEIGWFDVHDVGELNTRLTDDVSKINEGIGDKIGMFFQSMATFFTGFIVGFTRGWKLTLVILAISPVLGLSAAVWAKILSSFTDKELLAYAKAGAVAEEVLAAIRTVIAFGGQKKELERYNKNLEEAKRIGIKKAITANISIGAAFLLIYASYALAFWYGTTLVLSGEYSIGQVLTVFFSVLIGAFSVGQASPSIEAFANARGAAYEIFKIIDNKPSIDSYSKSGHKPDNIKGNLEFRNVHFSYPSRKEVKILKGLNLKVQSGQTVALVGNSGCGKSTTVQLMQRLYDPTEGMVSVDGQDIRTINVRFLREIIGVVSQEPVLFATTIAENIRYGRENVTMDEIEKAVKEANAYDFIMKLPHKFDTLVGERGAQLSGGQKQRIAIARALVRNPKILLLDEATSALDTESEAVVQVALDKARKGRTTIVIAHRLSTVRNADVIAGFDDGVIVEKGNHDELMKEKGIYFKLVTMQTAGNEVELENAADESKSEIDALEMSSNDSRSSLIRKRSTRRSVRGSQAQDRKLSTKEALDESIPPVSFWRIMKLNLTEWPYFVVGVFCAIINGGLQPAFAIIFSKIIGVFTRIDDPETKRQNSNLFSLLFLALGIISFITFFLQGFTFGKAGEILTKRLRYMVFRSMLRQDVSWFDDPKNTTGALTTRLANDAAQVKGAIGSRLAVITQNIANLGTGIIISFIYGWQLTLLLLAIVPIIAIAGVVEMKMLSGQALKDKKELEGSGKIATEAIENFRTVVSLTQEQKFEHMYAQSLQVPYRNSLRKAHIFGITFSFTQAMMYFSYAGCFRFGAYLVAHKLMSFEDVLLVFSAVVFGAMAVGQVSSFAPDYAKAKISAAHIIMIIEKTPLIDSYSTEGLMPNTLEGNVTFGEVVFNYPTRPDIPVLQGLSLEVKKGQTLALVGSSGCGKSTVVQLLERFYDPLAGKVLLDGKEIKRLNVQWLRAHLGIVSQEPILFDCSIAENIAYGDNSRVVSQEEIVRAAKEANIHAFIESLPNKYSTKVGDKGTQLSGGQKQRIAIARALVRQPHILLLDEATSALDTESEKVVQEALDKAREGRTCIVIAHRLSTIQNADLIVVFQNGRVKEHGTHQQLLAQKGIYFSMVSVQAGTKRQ
UniProt Q96FL8: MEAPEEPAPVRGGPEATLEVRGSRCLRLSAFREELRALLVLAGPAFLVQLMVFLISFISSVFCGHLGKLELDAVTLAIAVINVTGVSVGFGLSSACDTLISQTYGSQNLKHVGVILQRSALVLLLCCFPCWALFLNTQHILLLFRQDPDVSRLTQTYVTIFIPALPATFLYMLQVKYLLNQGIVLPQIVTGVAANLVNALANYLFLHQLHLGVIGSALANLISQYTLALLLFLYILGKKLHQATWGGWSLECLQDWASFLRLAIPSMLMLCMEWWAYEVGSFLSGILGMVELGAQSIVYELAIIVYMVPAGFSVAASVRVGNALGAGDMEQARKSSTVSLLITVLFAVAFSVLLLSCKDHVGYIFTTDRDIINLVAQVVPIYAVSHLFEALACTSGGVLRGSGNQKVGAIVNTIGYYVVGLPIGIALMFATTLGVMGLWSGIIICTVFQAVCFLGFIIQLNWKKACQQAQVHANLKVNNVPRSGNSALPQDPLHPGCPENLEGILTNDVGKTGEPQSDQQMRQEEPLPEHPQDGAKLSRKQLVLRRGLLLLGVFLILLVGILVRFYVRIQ
UniProt O15244: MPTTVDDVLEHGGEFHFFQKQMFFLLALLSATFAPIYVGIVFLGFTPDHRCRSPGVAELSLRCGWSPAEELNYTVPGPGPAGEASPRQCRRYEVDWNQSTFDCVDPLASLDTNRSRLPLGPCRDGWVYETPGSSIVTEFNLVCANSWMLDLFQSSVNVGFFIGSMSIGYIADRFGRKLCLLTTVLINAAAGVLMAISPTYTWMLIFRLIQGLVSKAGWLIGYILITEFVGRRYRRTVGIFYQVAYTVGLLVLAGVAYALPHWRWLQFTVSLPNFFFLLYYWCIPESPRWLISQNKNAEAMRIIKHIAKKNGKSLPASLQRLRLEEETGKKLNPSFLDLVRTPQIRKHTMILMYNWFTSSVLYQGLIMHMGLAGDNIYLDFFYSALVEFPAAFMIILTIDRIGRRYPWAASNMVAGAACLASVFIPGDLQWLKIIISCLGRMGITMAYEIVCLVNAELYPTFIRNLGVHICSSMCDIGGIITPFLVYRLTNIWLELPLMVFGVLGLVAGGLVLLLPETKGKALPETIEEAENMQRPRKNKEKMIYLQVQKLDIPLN

Tests used:
CYP2C9 [1] = biological target: T1, CYP2C9 (Homo sapiens, UniProt P11712); conditions: CYP2C9*1/*2 and *1/*3 relative to *1/*1
OAT3 = OAT3 (Homo sapiens, UniProt Q8TCC7); conditions: clinically relevant concentrations
OCT1 = OCT1 (Homo sapiens, UniProt O15245); conditions: clinically relevant concentrations
CYP2C9 [2] = biological target: T1, CYP2C9; conditions: role: substrate; estimated
rat bone marrow = test: In vivo rat bone marrow micronucleus assay
OAT1 = OAT1 (Homo sapiens, UniProt Q4U2R8); conditions: clinically relevant concentrations
[3] = system: FGFR-expressing cell lines
MATE-2K = MATE-2K (Homo sapiens, UniProt Q86VL8); conditions: clinically relevant concentrations
BCRP = conditions: clinically relevant concentrations
[4] = Study BLC3001 (NCT03390504, THOR) Cohort 1: safety, adverse events, laboratory abnormalities and exposure; conditions: for Acute kidney injury: serious adverse events, any cause
CYP3A4 [5] = biological target: T2, CYP3A4 (Homo sapiens, UniProt P08684); conditions: role: inhibitor; in vitro
CYP3A4 [6] = biological target: T2, CYP3A4; conditions: role: substrate; estimated
OATP1B3 = OATP1B3 (Homo sapiens, UniProt Q9NPD5); conditions: clinically relevant concentrations
P-gp = P-gp (Homo sapiens, UniProt P08183); conditions: in vitro
[7] = system: xenograft models derived from tumor types, including bladder cancer
MATE-1 = MATE-1 (Homo sapiens, UniProt Q96FL8); conditions: clinically relevant concentrations
OCT2 = OCT2 (Homo sapiens, UniProt O15244); conditions: in vitro
OATP1B = conditions: clinically relevant concentrations
other major CYP isozymes = conditions: role: inhibitor; clinically relevant concentrations
[8] = adverse events leading to death
[9] = leading to treatment discontinuation

## COc1cc(OC)cc(N(CCNC(C)C)c2ccc3ncc(-c4cnn(C)c4)nc3c2)c1 [Erdafitinib, N-(3,5-dimethoxyphenyl)-N′-(1-methylethyl)-N-[3-(1-methyl-1H-pyrazol-4-yl)quinoxalin-6-yl]ethane-1,2-diamine]
CYP2C9 [1]
  Exposure by CYP2C9 genotype: Erdafitinib exposure was similar in subjects with CYP2C9*1/*2 and *1/*3 genotypes relative to subjects with CYP2C9*1/*1 genotype (wild type)
OAT3
  OAT3 inhibition: does not inhibit
OCT1
  OCT1 inhibition: does not inhibit
CYP2C9 [2]
  Contribution of CYP2C9 in the total clearance: 39%
Rat bone marrow
  Clastogenicity, in vivo rat bone marrow micronucleus: not clastogenic
OAT1
  OAT1 inhibition: does not inhibit
[3]
  Antitumor activity in cell lines: demonstrated antitumor activity in FGFR-expressing cell lines
MATE-2K
  MATE-2K inhibition: does not inhibit
BCRP
  BCRP inhibition: does not inhibit
[4]; Grade 1
  Acute kidney injury: 0 no. (%)
[4]; Grade 1, treatment-emergent
  Nail discoloration: 16 (11.9) no. (%)
[4]; Grade 1, treatment-related
  Nail discoloration: 16 (11.9) no. (%)
[4]; Grade 2
  Acute kidney injury: 0 no. (%)
[4]; Grade 2, treatment-emergent
  Nail discoloration: 7 (5.2) no. (%)
[4]; Grade 2, treatment-related
  Nail discoloration: 7 (5.2) no. (%)
[4]; Grade ≥3
  Acute kidney injury: 3 (2.2) no. (%)
[4]; Grade ≥3, treatment-emergent
  Nail discoloration: 1 (0.7) no. (%)
[4]; Grade ≥3, treatment-related
  Nail discoloration: 1 (0.7) no. (%)
[4]; [8]
  General physical health deterioration: 0 no. (%)
  Pneumonia aspiration: 1 (0.7) no. (%)
[4]; any grade
  Acute kidney injury: 3 (2.2) no. (%)
[4]; any grade, treatment-related
  Nail discoloration: 24 (17.8) no. (%)
[4]; [9]
  General physical health deterioration: 2 (1.5) no. (%)
  Mouth ulceration: 1 (0.7) no. (%)
  Nail discoloration: 1 (0.7) no. (%)
  Pneumonia aspiration: 1 (0.7) no. (%)
CYP3A4 [5]
  CYP3A4 inhibition / induction: time dependent inhibitor and inducer of CYP3A4
CYP3A4 [6]
  Contribution of CYP3A4 in the total clearance: 20%
OATP1B3
  OATP1B3 inhibition: does not inhibit
P-gp
  P-gp substrate / inhibition: substrate and inhibitor of P-gp
[7]
  Antitumor activity in xenograft models: demonstrated antitumor activity in FGFR-expressing cell lines and xenograft models derived from tumor types, including bladder cancer
MATE-1
  MATE-1 inhibition: does not inhibit
OCT2
  OCT2 inhibition: inhibitor of OCT2
OATP1B
  OATP1B inhibition: does not inhibit
Other major CYP isozymes
  Inhibition of other major CYP isozymes: not an inhibitor of other major CYP isozymes at clinically relevant concentrations
